Our source for the binding values is patent US20100015128A1, “GRP78 as a Predictor of Responsiveness to Therapeutic Agents” (UNIVERSITY OF SOUTHERN CALIFORNIA, priority 2006, published 2010).

By UniProt entry, the sequences of proteins in these tests, tags left out. Residues count along the entry.
UniProt P11021, residues 19-654: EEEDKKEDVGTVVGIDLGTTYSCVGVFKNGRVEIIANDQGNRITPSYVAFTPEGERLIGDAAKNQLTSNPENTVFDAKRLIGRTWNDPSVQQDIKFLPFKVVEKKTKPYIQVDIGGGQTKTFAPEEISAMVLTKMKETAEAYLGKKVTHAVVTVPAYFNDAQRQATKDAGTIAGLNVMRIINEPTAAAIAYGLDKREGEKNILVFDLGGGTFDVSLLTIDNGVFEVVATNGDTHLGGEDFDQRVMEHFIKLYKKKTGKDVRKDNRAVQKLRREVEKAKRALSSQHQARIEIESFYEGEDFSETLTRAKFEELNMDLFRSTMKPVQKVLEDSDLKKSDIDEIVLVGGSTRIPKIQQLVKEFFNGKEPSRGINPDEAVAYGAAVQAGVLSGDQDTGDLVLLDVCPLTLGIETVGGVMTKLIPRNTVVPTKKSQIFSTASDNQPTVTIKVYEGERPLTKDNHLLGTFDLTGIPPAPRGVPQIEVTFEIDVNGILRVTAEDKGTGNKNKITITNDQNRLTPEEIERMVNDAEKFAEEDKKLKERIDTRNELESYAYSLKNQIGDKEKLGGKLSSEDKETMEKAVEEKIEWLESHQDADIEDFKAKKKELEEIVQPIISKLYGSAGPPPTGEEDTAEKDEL

In experiment [1] the target is Flag-tagged BIK-b5TM (UniProt Q13323). The experiment is described as follows: co-immunoprecipitation with anti-Flag (figure legend).
For experiment [2] the target is unchanged. The experiment is described as follows: co-immunoprecipitation with anti-Flag from transfected 293T lysate, Western blot. Background: In western blotting, separated proteins are transferred to a membrane and probed.
The target of experiment [3] is endogenous Grp78 (human) (UniProt P11021). The experiment is described as follows: co-immunoprecipitation with anti-BIK from 293T lysate, Western blot.
The target is the same in experiment [4]. The experiment is described as follows: co-immunoprecipitation and GST pull-down (figure legend).

These are yes or no findings as the source states them, for the method shown. Binding seen in cells or lysates may run through a third protein. Some binding calls cover weakened binding; strength is not graded here.

“endogenous Grp78 (from UniProt P11021 19-654)”: the binding result with Flag-tagged BIK-b5TM [1] and with Flag-tagged BIK-b5TM [2] was “binds” throughout.

B1: endogenous BIK (other, human, UniProt Q13323 1-160, looked up)
chain: MSEVRPLSRDILMETLLYEQLLEPPTMEVLGMTDSEEDLDPMEDFDSLECMEGSDALALRLACIGDEMDVSLRAPRLAQLSEVAMHSLGLAFIYDQTEDIRDVLRSFMDGFTTLKENIMRFWRSPNPGSWVSCEQVLLALLLLLALLLPLLSGGLHLLLK
notes: Endogenous protein from total cell extract of the human cell line 293T, untreated or etoposide-treated; also called BIK protein
As for B1, the binding entry with endogenous Grp78 (human) [3] and with endogenous Grp78 (human) [4] was “binds” in each case.
